Measurements reported in PubChem BioAssay AID743454 (Peter MacCallum Cancer Centre, 2014)

Test: 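Genes whose loss kills vorinostat-resistant colon cancer cells under vorinostat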 (primary screen)
Cell system: human HCT116-VR colon cancer cells, selected for vorinostat resistance
Reagents: siRNA pool against human genes, 40 nM siRNA pool
Time to read-out: vorinostat for 24 h, read-out about 72 h after transfection
Challenge: vorinostat at 2.5 µM final
Detection: 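Two measures, CellTiter-Fluor viability and luminescent caspase 3/7 activity, each as fold change against same-plate mock wells, mean of duplicates, then screen-wide robust z-score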
Reading the numbers: viability robust z-score: higher = more viable cells than screen typical; caspase robust z-score: higher = more caspase 3/7 activity than screen typical
Rule for the call: 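a knock-down is a hit when classed RV1 or RV2 for lowered viability, or CA1 or CA2 for caspase activation; those lethal without drug were dropped; hits were retested singly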
The deposit covers about 18,000 reagents; below is an unselected part. 450 of them (2.5%) count as active. 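Single biological run; no consistent viability z cut-off exists, so the class columns, not z-scores, define the calls.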 A number with no mark means an inactive call. Reagent sequences are not shown.

CACNA1B (calcium voltage-gated channel subunit alpha1 B)
- viability hit class: no change
- caspase hit class: no change
- viability robust z-score: 0.43
- caspase robust z-score: -0.12

UBQLN2 (ubiquilin 2)
- viability hit class: no change
- caspase hit class: no change
- viability robust z-score: -0.91
- caspase robust z-score: 2.88

TRIM6-TRIM34 (TRIM6-TRIM34 readthrough)
- viability hit class: no change
- caspase hit class: no change
- viability robust z-score: 0.52
- caspase robust z-score: -0.04

SCRG1 (stimulator of chondrogenesis 1)
- viability hit class: no change
- caspase hit class: no change
- viability robust z-score: 0.28
- caspase robust z-score: 1.86

SPECC1L
- viability hit class: no change
- caspase hit class: no change
- viability robust z-score: -0.38
- caspase robust z-score: 0.6

GLCCI1 (glucocorticoid induced 1)
- viability hit class: no change
- caspase hit class: no change
- viability robust z-score: 0.34
- caspase robust z-score: -1.25

GABRA6 (gamma-aminobutyric acid type A receptor subunit alpha6)
- viability hit class: no change
- caspase hit class: no change
- viability robust z-score: 0.68
- caspase robust z-score: 3.17

PLCG2 (phospholipase C gamma 2)
- viability hit class: no change
- caspase hit class: no change
- viability robust z-score: -0.85
- caspase robust z-score: -1.34

PSPHP1 (phosphoserine phosphatase pseudogene 1)
- viability hit class: no change
- caspase hit class: no change
- viability robust z-score: -1.01
- caspase robust z-score: 3.5

BMERB1 (bMERB domain containing 1)
- viability hit class: no change
- caspase hit class: no change
- viability robust z-score: -0.04
- caspase robust z-score: 0.33

EPM2A (EPM2A glucan phosphatase, laforin)
- viability hit class: no change
- caspase hit class: no change
- viability robust z-score: -0.14
- caspase robust z-score: -0.55

PSD3 (pleckstrin and Sec7 domain containing 3)
- viability hit class: no change
- caspase hit class: no change
- viability robust z-score: -0.06
- caspase robust z-score: 0.46

2 neighbouring records from above, quoted:
UBQLN2 (ubiquilin 2)
- viability hit class: no change
- caspase hit class: no change
- viability robust z-score: -0.91
- caspase robust z-score: 2.88

TRIM6-TRIM34 (TRIM6-TRIM34 readthrough)
- viability hit class: no change
- caspase hit class: no change
- viability robust z-score: 0.52
- caspase robust z-score: -0.04
